Source: publication PMC11246417
These are yes or no findings as the source states them, for the method shown. In cells and extracts the contact can be indirect. Some results given as binding are weak or reduced against the parent protein; the word gives no strength.

Amino acid sequences for entries named in this document (tags omitted). A change or cut given only in a name is not applied to a line headed by its entry.
UniProt P01106: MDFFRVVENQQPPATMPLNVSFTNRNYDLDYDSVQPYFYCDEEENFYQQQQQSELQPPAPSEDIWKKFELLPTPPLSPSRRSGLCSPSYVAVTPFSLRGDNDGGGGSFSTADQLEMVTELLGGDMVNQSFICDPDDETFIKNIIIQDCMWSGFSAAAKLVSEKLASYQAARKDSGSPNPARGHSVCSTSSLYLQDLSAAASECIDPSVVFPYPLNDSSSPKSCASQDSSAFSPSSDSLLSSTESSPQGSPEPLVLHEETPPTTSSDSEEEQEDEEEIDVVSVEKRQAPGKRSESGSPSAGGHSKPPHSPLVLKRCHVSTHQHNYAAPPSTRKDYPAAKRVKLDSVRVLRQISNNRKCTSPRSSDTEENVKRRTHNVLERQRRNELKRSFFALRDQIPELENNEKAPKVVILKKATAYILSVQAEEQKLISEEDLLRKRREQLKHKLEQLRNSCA

Target: c-Myc (human (in HCT116 and P53R cells)) (UniProt P01106)
Assay: co-IP; Dynabeads protein G loaded with 3 μg antibody of the target protein or IgG; cell lysate supernatant incubated with beads overnight at 4 °C; washed three times with lysis buffer; bound proteins and inputs detected by immunoblotting; HCT116 and P53R cells (Fig. 6G)

binding: binds
B1: Ubiquitin domain containing 1 (UBTD1) (protein, UniProt Q9HAC8 1-227)
chain: MGNCVGRQRRERPAAPGHPRKRAGRNEPLKKERLKWKSDYPMTDGQLRSKRDEFWDTAPAFEGRKEIWDALKAAAYAAEANDHELAQAILDGASITLPHGTLCECYDELGNRYQLPIYCLSPPVNLLLEHTEEESLEPPEPPPSVRREFPLKVRLSTGKDVRLSASLPDTVGQLKRQLHAQEGIEPSWQRWFFSGKLLTDRTRLQETKIQKDFVIQVIINQPPPPQD
